Assay results as given in paper PMC7819943, “Rice protein-binding microarrays: a tool to detect cis-acting elements near promoter regions in rice”.
The other results are listed elsewhere or left out.

By UniProt entry, the sequences of proteins in these tests, tags left out.
UniProt Q0JBA9, entry or part of it: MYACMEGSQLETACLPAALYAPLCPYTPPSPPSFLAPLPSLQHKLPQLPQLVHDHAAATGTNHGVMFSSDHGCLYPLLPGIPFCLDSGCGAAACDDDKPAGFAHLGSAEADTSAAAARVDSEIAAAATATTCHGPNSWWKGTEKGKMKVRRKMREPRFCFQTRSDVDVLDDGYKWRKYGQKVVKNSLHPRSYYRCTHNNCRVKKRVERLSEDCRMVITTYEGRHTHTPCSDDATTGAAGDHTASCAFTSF

The sequences below were run against OsWRKY34 (Oryza sativa, UniProt Q0JBA9 1-250) (assay: protein-binding microarray (RPBM); PBS, 2% BSA, 51.3 ng/ul salmon testes DNA, 50 uM zinc acetate, 200 nM TF, 25 C, 1 h; high values mean tight binding). Conditions: protein: recombinant; tags: N-terminal polyhistidine and DsRed monomer fusion (pET32a); label: CyDye5-dUTP incorporated in the synthesized complementary strand; 3' TTTTT single-stranded linker to array surface; dsDNA, one strand shown.
Method in brief: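 A custom Agilent array was converted to double-stranded form by primer extension with Cy5-dUTP and blocked with 2% BSA. Protein at 200 nM in PBS with 2% BSA, salmon testes DNA and 50 µM zinc acetate was applied for 1 h at 25 °C, followed by washing. The proteins were polyhistidine–DsRed N-terminal fusions of transcription factors, expressed in E. coli BL21-CodonPlus and Ni–NTA-purified. The binding signal is per-feature fluorescence intensity (arbitrary units) from an Axon 4000B scanner.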

Row | Sequence | binding signal
1 | ATGTGTGACTTGTCTTTTTAATTTTTTTTTTAATTTTTTTCGGAGTCACCTAGTGCAG | 9610 fluorescence intensity (a.u.)
2 | CCCAACCACCCCGACCGCGTTCCGGCGGTTGCTGCAACCTCGGAGTCACCTAGTGCAG | 8980 fluorescence intensity (a.u.)
3 | CACCTACCGGGACAGCGCCGACTTCAACCGGACCGACGACCGGAGTCACCTAGTGCAG | 8410 fluorescence intensity (a.u.)
4 | GCCGCGCGCGCCGTCGTCCAGCCGCTGTCACGCCGCGCGGCGGAGTCACCTAGTGCAG | 9000 fluorescence intensity (a.u.)
5 | GTATTGCTAGTGGGCGGGTGATCGCTTCCCTCTCCTTCCTCGGAGTCACCTAGTGCAG | 9610 fluorescence intensity (a.u.)
6 | TCATGTGCTTCTTCATCTTCAGCTTTGCATGTAGCCTACTCGGAGTCACCTAGTGCAG | 10100 fluorescence intensity (a.u.)
7 | ACTAATTTCTTGCTAATTTTTTTCCTTTGCTCCTATCTCTCGGAGTCACCTAGTGCAG | 10400 fluorescence intensity (a.u.)
8 | CCGGCACACTGGTTTCCCTTGCATTAGATGATCACATTCACGGAGTCACCTAGTGCAG | 8270 fluorescence intensity (a.u.)
9 | GCCGCCACCATCTCTCATCGGACCATCGCAGCTCGACTCCCGGAGTCACCTAGTGCAG | 10100 fluorescence intensity (a.u.)
10 | ACGTGGAGGGGTTATTTGCACGCGAATCCGCGTAGATTTCCGGAGTCACCTAGTGCAG | 8070 fluorescence intensity (a.u.)
11 | GATGGTGTGTGGTGTTTCCTTTTTTTTTTCTCTGGAAACGCGGAGTCACCTAGTGCAG | 8440 fluorescence intensity (a.u.)
12 | CTACTTGCTTCTTTCCTCCTTTCTTCCTCCTCCTCCTACACGGAGTCACCTAGTGCAG | 9410 fluorescence intensity (a.u.)
13 | CCTGTTTGCCAGTCCTTACATTCTTCGAGAAGTAGATCCCCGGAGTCACCTAGTGCAG | 8530 fluorescence intensity (a.u.)
14 | TTATTTATAGCTCCGCCATGCACGCATCCATGTCGATCGTCGGAGTCACCTAGTGCAG | 8840 fluorescence intensity (a.u.)
15 | AGATTCTAGACATTACCAGTTTACCACAGCTTTCCTACTTCGGAGTCACCTAGTGCAG | 8090 fluorescence intensity (a.u.)
16 | GCTGCCGTCCGTTGAAATATTTACATTTTGGTCCTCGTGACGGAGTCACCTAGTGCAG | 12300 fluorescence intensity (a.u.)
17 | ACACACTACCTCTACATGTTGAATACCTCTTCTGTCCCAACGGAGTCACCTAGTGCAG | 8030 fluorescence intensity (a.u.)
18 | CGTCCAGGATGAATCTCATCCAATTTGCTTTTCTCTATATCGGAGTCACCTAGTGCAG | 8930 fluorescence intensity (a.u.)
19 | GCTACAAATCTGTAACCCGCTGCCCTTCTCTCTCCTCATTCGGAGTCACCTAGTGCAG | 8550 fluorescence intensity (a.u.)
20 | GACCCCACTGCTATTTTTTTCTGGATCCGCCAATAGCCAACGGAGTCACCTAGTGCAG | 10000 fluorescence intensity (a.u.)
21 | CCTATGTATTTCTCGTGTTGGTTAGACAGTTCACTTATTGCGGAGTCACCTAGTGCAG | 8660 fluorescence intensity (a.u.)
22 | GCGGGAGGAGGAGGGGAGGGAATCGCAGCTGCTGCGGCGGCGGAGTCACCTAGTGCAG | 8280 fluorescence intensity (a.u.)
23 | CGCCGCCGCAGCCGCCGCCATCCCACCGCCGGACTCCGGCCGGAGTCACCTAGTGCAG | 11200 fluorescence intensity (a.u.)
24 | GCCGTTCTCGGCGCGCCGCCTCGTCCCGGCGCTCTTCCCGCGGAGTCACCTAGTGCAG | 8150 fluorescence intensity (a.u.)
25 | TATTCATCTCAACTTTTCTTTTTGAATGCGCTTATAATTTCGGAGTCACCTAGTGCAG | 8440 fluorescence intensity (a.u.)
26 | GTCAAAACTTCTTACTCTTATCAATTGTTTGTGCAGTTTGCGGAGTCACCTAGTGCAG | 10600 fluorescence intensity (a.u.)
27 | CTACCTTTATACATGCCCTTACACTGTTTTACCATATTATCGGAGTCACCTAGTGCAG | 11500 fluorescence intensity (a.u.)

Rewritten as a markdown table: entries from further up.

| Row | Sequence | binding signal |
| --- | --- | --- |
| 8 | CCGGCACACTGGTTTCCCTTGCATTAGATGATCACATTCACGGAGTCACCTAGTGCAG | 8270 fluorescence intensity (a.u.) |
| 19 | GCTACAAATCTGTAACCCGCTGCCCTTCTCTCTCCTCATTCGGAGTCACCTAGTGCAG | 8550 fluorescence intensity (a.u.) |

Next entries follow.

Row | Sequence | binding signal
28 | AACAATATATCAGGCAAAACTCTTACATTCTTTTTTTTGGCGGAGTCACCTAGTGCAG | 9140 fluorescence intensity (a.u.)
29 | GGCTCGGCCCCGGTCCCGGCGCGCGCCCTCAACGGGATCCCGGAGTCACCTAGTGCAG | 9640 fluorescence intensity (a.u.)
30 | GCCACTAATCTTGTTCCTGCTGCATGCCAACCTGTCTTGACGGAGTCACCTAGTGCAG | 9060 fluorescence intensity (a.u.)
31 | CTTTGACTCAACATTGGTAACTTTGTCTATATAGGAGTATCGGAGTCACCTAGTGCAG | 8980 fluorescence intensity (a.u.)
32 | GTGTGTTGTATCGCCACAATGTTCTTATAGTTTCTTTTTTCGGAGTCACCTAGTGCAG | 11500 fluorescence intensity (a.u.)
33 | TCTCATCTATCTCCTCTACTATCTTATTCACCTCAGTATTCGGAGTCACCTAGTGCAG | 10400 fluorescence intensity (a.u.)
34 | CCATCTGCCTATCTATCTCTCGCAATTCTGGCGGCGCGCTCGGAGTCACCTAGTGCAG | 9410 fluorescence intensity (a.u.)
35 | TATATATATATATATATATATAAAAGTTACTTTTAGATTTCGGAGTCACCTAGTGCAG | 11500 fluorescence intensity (a.u.)
36 | ATCTACGTACTCCCCTTGTCGTCGTGTACAAACATTTACTCGGAGTCACCTAGTGCAG | 9650 fluorescence intensity (a.u.)
37 | CTAACATAGCCGTTGACTTGACATAGTATGTGATGTTCAGCGGAGTCACCTAGTGCAG | 9570 fluorescence intensity (a.u.)
38 | ATTGTAGTGCTCGTACTAGTACTGGTTTCTTTTGTTGTTCCGGAGTCACCTAGTGCAG | 10300 fluorescence intensity (a.u.)
39 | ATGTTACCTTTCCCGCCTCCTTTTCGCTTCTTTTATCCTCCGGAGTCACCTAGTGCAG | 9400 fluorescence intensity (a.u.)
40 | TGACTACTTGGCCATTTCAACTTCCTAAATTCGTATATCGCGGAGTCACCTAGTGCAG | 10900 fluorescence intensity (a.u.)
41 | ATCTCTCTCGATTCGTAGAGAGTTTGGTTGGTTGATAGCTCGGAGTCACCTAGTGCAG | 9700 fluorescence intensity (a.u.)
42 | CATCGCTTCTCCACCGTTGCAGCCTGCCACCCGTCGTGGCCGGAGTCACCTAGTGCAG | 8670 fluorescence intensity (a.u.)
43 | GCATTCACTCCATCGCACCACTTCATGCCGCAAAATGTTTCGGAGTCACCTAGTGCAG | 9970 fluorescence intensity (a.u.)
44 | GTGTCGGCGGAGGGGCGCGCGGCGGGGTCGGCGGAGGCGCCGGAGTCACCTAGTGCAG | 8590 fluorescence intensity (a.u.)
45 | ACCGCCTCCATCGGCCATTCAACCTGCAAGCGCTCGACCGCGGAGTCACCTAGTGCAG | 9130 fluorescence intensity (a.u.)
46 | CGGGCGGATGAGGGGCGGCGATGGGCGGGCAAGGGGCGTGCGGAGTCACCTAGTGCAG | 12500 fluorescence intensity (a.u.)
47 | CAGTCAGTTTCCTCATCCTCTTTGCATCCTCCGCGCCCTCCGGAGTCACCTAGTGCAG | 9760 fluorescence intensity (a.u.)
48 | GTACGACAGTAGTTGTTTTTCTCGCTTTTGATTTTGAGTCCGGAGTCACCTAGTGCAG | 8560 fluorescence intensity (a.u.)
49 | GCTTTCTTCTCTCTCTTCTCTTTTCTTCTCGATATGAGGTCGGAGTCACCTAGTGCAG | 9360 fluorescence intensity (a.u.)
50 | AACGTCTTTTCTCAATTGTGTTATTGCAGTTTCATGTGAGCGGAGTCACCTAGTGCAG | 8100 fluorescence intensity (a.u.)
51 | GTTGCCTCTCGCTCGCTGCTGCGGCTACTCATTGATCCTGCGGAGTCACCTAGTGCAG | 9050 fluorescence intensity (a.u.)
52 | CCCTCTGTTCTTTTCTCTTCTATTTCATCTCCTCGAAATACGGAGTCACCTAGTGCAG | 9760 fluorescence intensity (a.u.)
53 | GCCAGCGTTCCCTTGTTGCTCTGCGCCGCCGCCGGGAACGCGGAGTCACCTAGTGCAG | 8640 fluorescence intensity (a.u.)
54 | GGTTATCTGAGTTGGTTGGTTATGGCTTGAATTGCTTCTTCGGAGTCACCTAGTGCAG | 15300 fluorescence intensity (a.u.)
